Measurements reported in PubChem BioAssay AID1053208 (Peter MacCallum Cancer Centre, 2014).
Test: 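Synthetic lethal interactions between gene loss and doxorubicin in osteosarcoma cells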 (primary screen). Cells: mouse osteosarcoma cells, early-passage culture from an engineered mouse model of fibroblastic bone tumour. Knock-down reagent: siRNA pool against mouse genes, 40 nM. Time to read-out: about 120 h (48 h before drug, then 72 h with drug). Conditions: doxorubicin 100 nM for 72 h, roughly 30-40% inhibitory dose. Read-out: 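Viability read as ATP luminescence after 72 h of 100 nM doxorubicin or none, duplicate wells averaged, scaled to non-targeting siRNA, then expressed as robust z-scores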. Scale: viability z-score with doxorubicin and doxorubicin viability vs non-targeting: higher = more viable cells under doxorubicin; viability z-score without drug: higher = more viable cells with knock-down alone; z-score of drug to no-drug ratio: higher = less drug sensitisation by knock-down. Active means: 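Called active if knock-down leaves viability unchanged without drug (z within -2 to 2) but lowers it with doxorubicin (z at or under -2)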.
The deposit covers about 17,000 reagents; shown is a part drawn at random. Of all reagents, 788 (4.7%) are marked active. 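Calls rest on z-score classes alone; an extra cut-off of viability at most 70% of control was not applied to them.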 The numbers tell different reagents against one gene apart. A reagent listed more than once was tested more than once; the source does not tell the runs apart.

| target gene | pool no. | combined z-score class | viability z-score with doxorubicin | viability z-score without drug | z-score of drug to no-drug ratio | doxorubicin viability vs non-targeting | Call |
| --- | --- | --- | --- | --- | --- | --- | --- |
| Mtbp (MDM2 binding protein) | 1 | no change with or without drug | 1.91 | 0.51 | 1.69 | 1.11 | inactive |
| D830044D21Rik (RIKEN cDNA D830044D21 gene) | 1 | no change with or without drug | -0.45 | 1.18 | -1.12 | 0.9 | inactive |
| Or5p52 (olfactory receptor family 5 subfamily P member 52) | 1 | no change with or without drug | -1.8 | -0.17 | -1.69 | 0.78 | inactive |
| Wwtr1 (WW domain containing transcription regulator 1) | 1 | no change with or without drug | -0.45 | -0.84 | 0.22 | 0.9 | inactive |
| Nexn (nexilin) | 1 | no change with or without drug | 0.45 | 1.18 | -0.22 | 0.98 | inactive |
| Krtap3-2 (keratin associated protein 3-2) | 1 | no change with or without drug | -1.8 | -1.35 | -0.9 | 0.78 | inactive |
| Arhgap9 (Rho GTPase activating protein 9) | 1 | no change with or without drug | 0.45 | 0.84 | 0 | 0.98 | inactive |
| Defa-rs12 (defensin, alpha, related sequence 12) | 1 | no change with or without drug | 1.01 | 0.84 | 0.56 | 1.03 | inactive |
| Kif3b (kinesin family member 3B) | 1 | no change with or without drug | -0.79 | -0.67 | -0.22 | 0.87 | inactive |
| Glrx2 (glutaredoxin 2) | 1 | no change with or without drug | -0.79 | -1.85 | 0.67 | 0.87 | inactive |
| Vmn1r215 (vomeronasal 1 receptor 215) | 1 | no change with or without drug | -0.67 | -0.17 | -0.45 | 0.88 | inactive |
| Vmn1r5 (vomeronasal 1 receptor 5) | 1 | no change with or without drug | -0.9 | -0.67 | -0.34 | 0.86 | inactive |
| Plin5 (perilipin 5) | 1 | no change with or without drug | -1.57 | 0.84 | -2.02 | 0.8 | inactive |
| Pcgf3 (polycomb group ring finger 3) | 1 | no change with or without drug | -0.67 | 0.17 | -0.67 | 0.88 | inactive |
| Grip1 (glutamate receptor interacting protein 1) | 1 | no change with or without drug | -1.46 | -0.34 | -1.24 | 0.81 | inactive |
| Spast (spastin) | 1 | no change with or without drug | 1.12 | 0.84 | 0.67 | 1.04 | inactive |
| Lgi4 (leucine-rich repeat LGI family, member 4) | 1 | low cell count with doxorubicin only | -2.81 | -0.84 | -2.36 | 0.69 | active |
| Bpnt2 (3'(2'), 5'-bisphosphate nucleotidase 2) | 1 | no change with or without drug | 0.22 | 0 | 0.34 | 0.96 | inactive |
| Cyp4a12b (cytochrome P450, family 4, subfamily a, polypeptide 12B) | 1 | no change with or without drug | 0.67 | 0.84 | 0.22 | 1 | inactive |
| Pbld1 (phenazine biosynthesis-like protein domain containing 1) | 1 | no change with or without drug | -1.91 | 0.17 | -2.02 | 0.77 | inactive |
| Il17ra (interleukin 17 receptor A) | 1 | no change with or without drug | 0.67 | -1.18 | 1.8 | 1 | inactive |
| Grk5 (G protein-coupled receptor kinase 5) | 1 | no change with or without drug | 1.12 | 1.85 | 0 | 1.04 | inactive |
| Grk5 (G protein-coupled receptor kinase 5) | 1 | no change with or without drug | -1.12 | -0.84 | -0.56 | 0.84 | inactive |
| Elovl5 (ELOVL fatty acid elongase 5) | 1 | no change with or without drug | -1.24 | 0.84 | -1.69 | 0.83 | inactive |
| Rab11b (RAB11B, member RAS oncogene family) | 1 | no change with or without drug | -0.22 | -0.51 | 0.22 | 0.92 | inactive |
| Rab11b (RAB11B, member RAS oncogene family) | 2 | no change with or without drug | -1.35 | -0.17 | -1.24 | 0.82 | inactive |
| Abl1 (Abl proto-oncogene 1, non-receptor tyrosine kinase) | 1 | no change with or without drug | 0.34 | -0.17 | 0.56 | 0.97 | inactive |
| Sema5b | 1 | no change with or without drug | -0.22 | 0.67 | -0.56 | 0.92 | inactive |
| Tie1 | 1 | no change with or without drug | 0.45 | 0.84 | 0 | 0.98 | inactive |
| Plxna3 (plexin A3) | 1 | no change with or without drug | 0.45 | 0 | 0.56 | 0.98 | inactive |
| Six6 (sine oculis-related homeobox 6) | 1 | no change with or without drug | 1.12 | 1.85 | 0 | 1.04 | inactive |
| Tek (TEK receptor tyrosine kinase) | 1 | low cell count with doxorubicin only | -2.25 | -1.18 | -1.57 | 0.74 | active |
| Psmd2 (proteasome (prosome, macropain) 26S subunit, non-ATPase, 2) | 1 | no change with or without drug | -0.22 | -0.17 | 0 | 0.92 | inactive |
| Egfl7 (EGF-like domain 7) | 1 | no change with or without drug | -0.9 | 1.01 | -1.46 | 0.86 | inactive |
| Setd3 (SET domain containing 3) | 1 | no change with or without drug | -0.45 | -0.51 | 0 | 0.9 | inactive |
| Pmf1 (polyamine-modulated factor 1) | 1 | no change with or without drug | -0.22 | 0.17 | -0.22 | 0.92 | inactive |
| Gabpb2 (GA repeat binding protein, beta 2) | 1 | no change with or without drug | 1.57 | 1.69 | 0.56 | 1.08 | inactive |
| Ccna2 (cyclin A2) | 1 | no change with or without drug | 1.24 | 0.17 | 1.24 | 1.05 | inactive |
| Trim68 (tripartite motif-containing 68) | 1 | high cell count without drug only | 1.57 | 2.02 | 0.34 | 1.08 | inactive |
| Gprc5b (G protein-coupled receptor, family C, group 5, member B) | 1 | no change with or without drug | 1.35 | 1.35 | 0.56 | 1.06 | inactive |
| Duxbl1 (double homeobox B-like 1) | 1 | no change with or without drug | 1.35 | 1.01 | 0.79 | 1.06 | inactive |
| Zfp322a (zinc finger protein 322A) | 1 | no change with or without drug | 0.9 | 1.85 | -0.22 | 1.02 | inactive |
| Mterf1a (mitochondrial transcription termination factor 1a) | 1 | high cell count with doxorubicin only | 2.25 | -0.34 | 2.81 | 1.14 | inactive |
| Yipf7 (Yip1 domain family, member 7) | 1 | high cell count without drug only | -0.9 | 2.02 | -2.02 | 0.86 | inactive |
| Rundc1 (RUN domain containing 1) | 1 | no change with or without drug | -1.8 | 0.17 | -1.91 | 0.78 | inactive |
| Sec61g (SEC61 translocon subunit gamma) | 1 | no change with or without drug | 0 | -1.69 | 1.46 | 0.94 | inactive |
| 1700008J07RIK | 1 | no change with or without drug | -0.67 | 0.67 | -1.01 | 0.88 | inactive |
| Mrgprb3 (MAS-related GPR, member B3) | 1 | no change with or without drug | 1.8 | -1.52 | 3.37 | 1.1 | inactive |
| Or1b1 (olfactory receptor family 1 subfamily B member 1) | 1 | no change with or without drug | -1.35 | -1.52 | -0.34 | 0.82 | inactive |
| Trappc4 (trafficking protein particle complex 4) | 1 | high cell count with doxorubicin only | 3.04 | 0.51 | 2.81 | 1.21 | inactive |
